## Screening data, single-dose tests

Protein sequences, listed by entry. Tags and fused reporters are not part of them. Residues count along the entry.
UniProt Q8IDJ8, 1-583: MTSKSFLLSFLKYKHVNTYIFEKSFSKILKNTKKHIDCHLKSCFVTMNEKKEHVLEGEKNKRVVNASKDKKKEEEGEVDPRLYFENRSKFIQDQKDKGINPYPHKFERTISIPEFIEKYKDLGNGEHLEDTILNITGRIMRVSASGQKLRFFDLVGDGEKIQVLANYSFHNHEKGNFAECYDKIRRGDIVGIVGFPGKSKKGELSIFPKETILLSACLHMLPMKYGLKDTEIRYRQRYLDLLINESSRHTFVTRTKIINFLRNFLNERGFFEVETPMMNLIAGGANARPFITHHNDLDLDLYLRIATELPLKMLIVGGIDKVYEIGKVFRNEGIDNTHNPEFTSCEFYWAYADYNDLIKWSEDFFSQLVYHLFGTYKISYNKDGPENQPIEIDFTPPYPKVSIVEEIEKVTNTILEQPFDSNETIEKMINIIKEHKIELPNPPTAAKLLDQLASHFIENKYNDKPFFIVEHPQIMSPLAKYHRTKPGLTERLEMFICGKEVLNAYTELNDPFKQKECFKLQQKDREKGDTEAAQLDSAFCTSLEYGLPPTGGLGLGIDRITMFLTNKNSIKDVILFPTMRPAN
UniProt Q4DA54, 1-478: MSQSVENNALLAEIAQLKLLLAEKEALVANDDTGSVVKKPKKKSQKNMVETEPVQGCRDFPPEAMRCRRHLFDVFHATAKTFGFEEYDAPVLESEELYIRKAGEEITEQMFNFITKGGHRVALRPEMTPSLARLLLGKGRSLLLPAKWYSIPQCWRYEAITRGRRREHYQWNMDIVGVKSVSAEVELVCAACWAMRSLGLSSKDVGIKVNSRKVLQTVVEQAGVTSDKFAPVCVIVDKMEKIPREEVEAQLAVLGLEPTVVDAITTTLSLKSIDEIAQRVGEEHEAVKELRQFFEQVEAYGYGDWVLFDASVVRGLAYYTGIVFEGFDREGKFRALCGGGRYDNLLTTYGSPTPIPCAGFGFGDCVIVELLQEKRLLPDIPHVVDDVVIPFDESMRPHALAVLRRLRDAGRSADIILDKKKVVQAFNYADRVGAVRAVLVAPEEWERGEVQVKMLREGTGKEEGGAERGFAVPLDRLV

Measurements from “University of Dundee, Small-Polar-MMV Screening Library” (2021), ChEMBL document CHEMBL3988442.

Leishmania in macrophages: 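Cell assay of Leishmania donovani living inside macrophages; the read-out is not stated. Concentration: 30 µM. The record gives no direction; compounds that gave an IC50 in retests scored well above the rest, so higher reads as stronger inhibition. About 69,000 compounds were tested under these conditions; 1.5% (about 1,000) showed 50% or more at least once.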
T. brucei: 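Whole-parasite assay of Trypanosoma brucei over 72 hours; the read-out is not stated. Compounds at 30 µM. Direction is inferred from retests: higher values go with stronger inhibition. Values scatter widely below zero; nearly all retest evidence comes from the higher of the two concentrations used. Of about 64,000 compounds tested this way, about 940 (1.5%) reached 50% or more in at least one test.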
Toxoplasma: 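Assay of Toxoplasma gondii numbers, read through their beta-galactosidase reporter with a colour substrate. Tested at 10 µM. Higher reads as fewer parasites (inferred from which compounds were picked for retests). Size under these conditions: about 67,000 compounds, about 260 of them at 50% or above in at least one test.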
PfKRS1: 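Lysine-tRNA ligase, Plasmodium falciparum 3D7 (UniProt Q8IDJ8). Enzyme assay of the cytosolic lysyl-tRNA synthetase in 384-well plates, read by luminescence. Tested at 30 µM. Direction is inferred from only a few compounds that gave an IC50; most scored high, so higher reads as stronger inhibition. About 69,000 compounds were tested under these conditions; 0.071% (about 49) showed 50% or more at least once.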
TcHisRS: 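Histidine-tRNA ligase, Trypanosoma cruzi CL Brener (UniProt Q4DA54). Enzyme assay of histidyl-tRNA synthetase; the read-out is not stated. Compounds at 30 µM. Direction is inferred from retests: higher values go with stronger inhibition. Of about 69,000 compounds tested this way, about 31 (0.045%) reached 50% or more in at least one test.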

Each number is a percent effect as filed.
The controls that fix the scale are not given in the record; negative values are as filed.
This is an unselected part of the compounds tested.
Two or more numbers in one place are separate tests of the same structure; such repeats can differ widely.
A dash means the value is not listed here; it may have been measured.

Compound	Leishmania in macrophages	T. brucei	Toxoplasma	PfKRS1	TcHisRS
COC(=O)CCC(=O)NCc1cccnc1N1CCc2ccccc2C1	4.467	-32.72	-7.99	3.743	5.319
CC(C)c1[nH]c2ncccc2c1CN1CCC(O)CC1	-8.562	5.326	5.211	1.831	3.876
CCc1ccc(C(=O)Nc2ccc(CC3CC(=O)NC3=O)cc2)s1 (stereo not given)	-2.391	-69.01	12.68	0.5932	9.278
Cc1cc(C(C)NC(=O)c2c[nH]c(=O)c(Cl)c2)c(C)o1 (stereo not given)	-13.85	-29.86	0.6472	1.009	1.911
O=C(NCC1CC1)c1cc2c(s1)CCN2c1ncccn1	54.07	-52.61	-26.47	8.844	15.47
Cc1cc(C(=O)NC(C)CC(=O)c2cccs2)n(C)n1 (stereo not given)	-18.08	-12.86	-16.23	-0.4258	6.931
CC(C)(C)OC(=O)NC(C)(C)c1noc(CSc2nncs2)n1	-12.48	-21.66	-23.12	0.1955	3.061
O=C(C1SCCc2sccc21)N1CCCCC1 (stereo not given)	-9.916	-33.72	8.199	5.685	5.172
N#Cc1cccc(N2CC3(CCN(C(=O)c4ccnnc4)C3)CC2=O)c1 (stereo not given)	17.51	8.948	2.319	5.096	7.438
[H][C@@]12C[C@H](c3nc(C)no3)O[C@]1([H])CCN(C(=O)Cc1ccsc1)C2	6.851	28.92	0.654	-	-
CCCc1noc(-c2ccc(-n3ncc(C(=O)O)c3C)nc2)n1	13	1.183	13.54	-0.4835	4.124
Cc1cc(C)n(CC2CCCCN2C(=O)c2ccc3[nH]nnc3c2)n1 (stereo not given)	33.55	-8.681	-6.898	10.08	1.22
Cc1ncncc1C(=O)N1C[C@H]2CC[C@@H]1CN(C(=O)c1ccncc1)C2	-	-	-	4.913	3.409
Cn1cc(-c2nnn3c2COC(CNCc2cccnc2)C3)cn1 (stereo not given)	24.56	18.74	1.438	7.453	0.8
CCOc1ccccc1C(N)CC(C)C (stereo not given)	19.23	-21.09	1.079	1.915	2.41
CC(NC1(CNC(=O)CC2CCCC2)CCOCC1)c1ccccc1 (stereo not given)	-13.46	-12	0.5461	5.774	17.26
CC(OCC(F)(F)F)C(=O)NCCN(C)C (stereo not given)	-9.518	-15.71	-1.947	-4.047	0
CCN(CC)Cc1ccc(C(=O)N2CCN(CC(C)O)CC2)cc1 (stereo not given)	28.38	-17.38	2.929	0.4335	5.263
O=C(Cn1c(=O)n(Cc2ccco2)c2ncccc21)NC1CCCC1	9.251 & 2.67	-9.937	11.23	2.617	2.198
Cc1noc(C(C)C)c1C(=O)NCc1cc(F)cc(F)c1	-13.04	-16.91	1.165	8.474	1.527
NC(=O)CN1CCCC(c2ccnc(Nc3ncccn3)c2)C1 (stereo not given)	-25.69	-27.15	19.53	-0.2547	3.03
COc1ccc(S(=O)(=O)N[C@H]2CN(C(C)=O)C[C@@H]2C2CC2)cc1C	16.69	-33.76	-1.181	2.807	0.4292
CC(c1cccc(-c2nccn2CCc2cn[nH]c2)c1)N(C)C (stereo not given)	-2.607	-71.92	18.7	3.411	4.124
CN(C)C(=O)CN1CCCC1c1nccnc1Nc1ccccn1 (stereo not given)	-4.595	-1.751	-0.6567	6.282	4.255
CCC(NC(=O)C(C)(C)C)c1ccccc1C (stereo not given)	-8.319	-0.1868	6.112	-4.992	0
COC(=O)[C@H](C)NC(=O)COc1nn(C)c2nc(C)cc(C)c12	-4.13	-7.738	13.95	3.187	2.051
CN(Cc1ccccc1Cl)C(C(=O)O)c1ccc(F)c(CO)c1 (stereo not given)	10.87	-	9.3	1.327	2.299
Cc1ccccc1N1CC2(CCN(Cc3nccn3C)C2)CC1=O.O=C(O)C(F)(F)F (stereo not given)	-1.583	-22.72	11.23	-	-
O=C(CCC1CCCN(C(=O)CCc2ccc(F)c(F)c2)C1)NC1CC1 (stereo not given)	5.148	-37.08	4.77	3.016	0.8929
CC(Oc1ccccc1C#N)C(=O)NC1CC1 (stereo not given)	8.957	-10.73	-7.203	-1.328	-2.521
CCS(=O)(=O)N1CCC2(CCCN(Cc3ccc(F)c(F)c3)C2=O)C1 (stereo not given)	-17.61	-3.379	-11.15	1.666	4.902
CO[C@H]1CO[C@@]2(CCCN(C(=O)N3CCCC3)C2)C1	39.1	-84.09	-11.85	2.844	11.64
COCCn1cnc2ccc(NC(=O)c3c(C)noc3C)cc2c1=O	12.13	-38.92	-	-3.849	11.88
O=C(CCNC(=O)c1cnccn1)Nc1ncc[nH]1	15.01	-39.01	-6.709	0.8486	1.754
[H][C@]12CC[C@]([H])(CN(c3nnc(C(C)C)s3)C1)N(CC1CCC1)C2	29.34	-2.589	5.381	-	-
O=C(O)C(F)(F)F.[H][C@@]12CCN(CC3CC3)[C@@]1([H])CCN2C(=O)c1cccn1C	6.077 & 7.828	-36.31	-2.205	-	-
Cc1ccc(NC2CCN(C(=O)CCNc3ncccn3)CC2)nn1	38.47	13.9	-5.063	4.188	4.07
COc1cccc(CC2(C(=O)O)CCN(c3ccc(Cl)cn3)CC2)c1	7.373	-5.206	-	6.002	4.598
C=C(C)CN1CCN(Cc2cnc(-c3ccccc3C)nc2)CC1	-	-	-	0.9724	3.802
O=C(O)C(F)(F)F.O=C1N(c2ccsc2)CCC12CCCN(CC1CC1)C2 (stereo not given)	57	-10.91	-4.351	-	-
CN(Cc1nccn1C)C(CO)c1cccc(Br)c1 (stereo not given)	-28.54	-21.67	-7.224	1.659	4.878
CC(C)(C)c1n[nH]c(C2CN(CCc3ccncc3)CCO2)n1 (stereo not given)	-4.893	-30.22	24.07	0.3922	2.062
CS(=O)(=O)NCCCN1CCCC1c1cccc(Br)c1 (stereo not given)	5.916	-	0.4165	1.605	9.143
Cc1nc(CN(C)C(=O)Nc2cccc(COC(C)C)c2)no1	24.33	-24.1	0.1873	5.98	6.952
Cc1cc(C)c2nc(CN3CCCC(c4cc[nH]n4)C3)cc(O)c2c1 (stereo not given)	38.3	-9.951	-0.9233	3.885	4.167
Cc1cc(C)n(C2CCCN(C(=O)c3cc(C(N)=O)cs3)C2)n1 (stereo not given)	-9.227	-	3.706	0.6029	5.413
COc1ccc([C@@H]2CN(C(=O)CS(C)(=O)=O)C[C@H]2NC(C)=O)cc1	13.87	-86.91	5.859	1.947	0
CC(C)NC(=O)N1CCC2(C1)CN(c1ccsc1)C(=O)CN2C.O=C(O)C(F)(F)F (stereo not given)	10.11	1.774	-9.972	-	-
CCn1cc(N2Cc3nc(N4CCN(C)CC4)ncc3C2=O)cn1	-37.06	47.76	-3.586	1.551	1.639
COC(=O)C1CN(Cc2ccc(-c3ccncc3)cc2F)C[C@@H](C)O1 (stereo not given in full)	3.361	-39.15	1.354	-1.125	2.941
CC(C)(C)C(=O)NCCC(=O)N1CCC(Nc2cccnn2)CC1	13.07	-15.31	-9.153	0.7496	3.468
CSc1ccsc1C(=O)N1CCN(CC(C)(C)O)CC1	-10.02	5.677	1.744	5.565	-0.3759
CC(=O)N1C[C@H](NS(=O)(=O)N2CCOCC2)[C@@H](c2ccc(C)o2)C1	-6.022	-32.64	3.253	0.6792	4.545
Cc1ccc2c(c1)N(C(=O)c1cc[nH]c(=O)c1)CC(C)O2 (stereo not given)	12.13	-22.14	10.34	2.581	0
O=C(CC1CSc2nccc(=O)n21)NCc1cc(-c2ccco2)on1 (stereo not given)	4.032	-20.81	18.53	2.482	1.463

6 of the entries, repeated:

Compound	Leishmania in macrophages	T. brucei	Toxoplasma	PfKRS1	TcHisRS
O=C(O)C(F)(F)F.O=C1N(c2ccsc2)CCC12CCCN(CC1CC1)C2 (stereo not given)	57	-10.91	-4.351	-	-
CN(Cc1ccccc1Cl)C(C(=O)O)c1ccc(F)c(CO)c1 (stereo not given)	10.87	-	9.3	1.327	2.299
CC(C)c1[nH]c2ncccc2c1CN1CCC(O)CC1	-8.562	5.326	5.211	1.831	3.876
O=C(CC1CSc2nccc(=O)n21)NCc1cc(-c2ccco2)on1 (stereo not given)	4.032	-20.81	18.53	2.482	1.463
CC(c1cccc(-c2nccn2CCc2cn[nH]c2)c1)N(C)C (stereo not given)	-2.607	-71.92	18.7	3.411	4.124
O=C(O)C(F)(F)F.[H][C@@]12CCN(CC3CC3)[C@@]1([H])CCN2C(=O)c1cccn1C	6.077 & 7.828	-36.31	-2.205	-	-